The source of these data is PMC7947762.

Protein sequences, listed by entry. Tags and fused reporters are not part of them.
UniProt Q8DLC1: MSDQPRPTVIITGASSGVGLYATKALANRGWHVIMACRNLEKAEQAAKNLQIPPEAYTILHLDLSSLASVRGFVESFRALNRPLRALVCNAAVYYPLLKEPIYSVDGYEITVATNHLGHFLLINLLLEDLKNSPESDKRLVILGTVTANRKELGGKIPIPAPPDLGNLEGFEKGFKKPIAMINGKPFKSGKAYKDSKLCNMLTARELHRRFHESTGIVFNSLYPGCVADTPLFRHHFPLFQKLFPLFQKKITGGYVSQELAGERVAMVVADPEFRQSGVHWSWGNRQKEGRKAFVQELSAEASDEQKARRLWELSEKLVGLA

Results are given in words; binding and its absence hold for the method and conditions named.

The test deals with light-dependent protochlorophyllide oxidoreductase of Thermosynechococcus elongatus BP-1 (Thermosynechococcus elongatus BP-1) (UniProt Q8DLC1). Nature of the test: SAXS; apo protein in solution, four samples of ~0.5, 1, 3 and 5 mg/ml, 10 °C, 20 mM Tris/HCl pH 7.5, 500 mM NaCl, 20% (v/v) glycerol; molecular mass estimated from Porod volume and ab initio models and compared with the theoretical mass; both purified.

In the case of “light-dependent protochlorophyllide oxidoreductase of Thermosynechococcus elongatus BP-1 (from UniProt Q8DLC1 1-322) (enzyme)”, the binding result is “no binding (tested: ∼0.5, 1, 3, and 5 mg ml^−1)”.
